These are literature values, as cited in patent US20220008382A1, “ALCOHOL ANTIDOTE” (Evanium Healthcare GmbH, priority 2018, published 2022).

For the series the following is noted: at 25° C.; cited from earlier work.

SMILES strings stand for the structures.

As to `OC[C@H]1O[C@@H]2O[C@H]3[C@H](O)[C@@H](O)[C@@H](O[C@H]4[C@H](O)[C@@H](O)[C@@H](O[C@H]5[C@H](O)[C@@H](O)[C@@H](O[C@H]6[C@H](O)[C@@H](O)[C@@H](O[C@H]7[C@H](O)[C@@H](O)[C@@H](O[C@H]8[C@H](O)[C@@H](O)[C@@H](O[C@H]9[C@H](O)[C@@H](O)[C@@H](O[C@H]1[C@H](O)[C@H]2O)O[C@@H]9CO)O[C@@H]8CO)O[C@@H]7CO)O[C@@H]6CO)O[C@@H]5CO)O[C@@H]4CO)O[C@@H]3CO` [γ-CD, γ-cyclodextrin], the Water solubility is 223 mg/mL.
